No constants are given. Whether binding was seen depends on the method and setting.

Among the data in patent US20240390460A1 (Regeneron, published 2024) are binding values, retold here.

In this test the target is T1, Human IL2RG M145K (human) (UniProt P31785).
T1 sequence: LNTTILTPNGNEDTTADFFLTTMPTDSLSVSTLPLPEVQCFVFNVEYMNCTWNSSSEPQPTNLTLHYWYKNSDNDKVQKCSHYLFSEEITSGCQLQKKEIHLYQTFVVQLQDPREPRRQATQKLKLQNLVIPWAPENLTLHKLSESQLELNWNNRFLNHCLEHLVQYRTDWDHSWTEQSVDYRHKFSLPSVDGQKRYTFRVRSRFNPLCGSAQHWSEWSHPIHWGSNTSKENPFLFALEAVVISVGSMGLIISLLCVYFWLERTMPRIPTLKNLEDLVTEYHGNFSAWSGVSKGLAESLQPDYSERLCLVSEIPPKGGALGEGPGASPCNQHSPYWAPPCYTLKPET
Description: flow cytometry on iNK cells engineered with the M145K IL2RG mutation. (In general: A flow cytometer gives signals particle by particle.)

B1: REGN7257 (antibody, human IgG4 S228P, kappa, V domains shown)
VH: EVQLVESGGGLVQPGGSLRLSCAASGFIFSSYEMHWVRQAPGKGLEWISYISSSGTTIYYADSVKGRFTISRDNAKNSLYLHMNSLRAEDTAVYYCTRARITGTFDVFDIWGQGTMVTVSS
VL: DIQMTQSPSSLSASVGDRVTITCRASQSISSYLNWYQQKPGKAPKLLIFAASNLQSGVPSRFSGSRSGTDFTLTISSLQPEDFATYYCQQNYNIPYTFGQGTKLEIKR
notes: also called H4H12889P; anti-IL2RG antibody
Regarding B1, the binding entry is “no binding”.
